From PMC10746258
Results are given in words; binding and its absence hold for the method and conditions named. In cells and extracts the contact can be indirect. Some binding calls cover weakened binding; strength is not graded here.

Sequences of proteins named here, by UniProt entry; tags and fusion partners are left off.
UniProt P36402: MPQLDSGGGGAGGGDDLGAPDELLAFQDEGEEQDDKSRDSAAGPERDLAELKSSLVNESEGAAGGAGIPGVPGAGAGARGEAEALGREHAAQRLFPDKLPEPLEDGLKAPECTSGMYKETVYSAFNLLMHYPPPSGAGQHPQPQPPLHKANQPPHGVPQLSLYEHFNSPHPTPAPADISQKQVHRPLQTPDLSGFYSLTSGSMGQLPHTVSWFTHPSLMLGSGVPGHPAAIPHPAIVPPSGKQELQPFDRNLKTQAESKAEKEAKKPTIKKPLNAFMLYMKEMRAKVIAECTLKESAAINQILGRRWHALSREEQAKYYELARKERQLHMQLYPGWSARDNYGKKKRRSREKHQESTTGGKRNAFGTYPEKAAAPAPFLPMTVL
UniProt P35222: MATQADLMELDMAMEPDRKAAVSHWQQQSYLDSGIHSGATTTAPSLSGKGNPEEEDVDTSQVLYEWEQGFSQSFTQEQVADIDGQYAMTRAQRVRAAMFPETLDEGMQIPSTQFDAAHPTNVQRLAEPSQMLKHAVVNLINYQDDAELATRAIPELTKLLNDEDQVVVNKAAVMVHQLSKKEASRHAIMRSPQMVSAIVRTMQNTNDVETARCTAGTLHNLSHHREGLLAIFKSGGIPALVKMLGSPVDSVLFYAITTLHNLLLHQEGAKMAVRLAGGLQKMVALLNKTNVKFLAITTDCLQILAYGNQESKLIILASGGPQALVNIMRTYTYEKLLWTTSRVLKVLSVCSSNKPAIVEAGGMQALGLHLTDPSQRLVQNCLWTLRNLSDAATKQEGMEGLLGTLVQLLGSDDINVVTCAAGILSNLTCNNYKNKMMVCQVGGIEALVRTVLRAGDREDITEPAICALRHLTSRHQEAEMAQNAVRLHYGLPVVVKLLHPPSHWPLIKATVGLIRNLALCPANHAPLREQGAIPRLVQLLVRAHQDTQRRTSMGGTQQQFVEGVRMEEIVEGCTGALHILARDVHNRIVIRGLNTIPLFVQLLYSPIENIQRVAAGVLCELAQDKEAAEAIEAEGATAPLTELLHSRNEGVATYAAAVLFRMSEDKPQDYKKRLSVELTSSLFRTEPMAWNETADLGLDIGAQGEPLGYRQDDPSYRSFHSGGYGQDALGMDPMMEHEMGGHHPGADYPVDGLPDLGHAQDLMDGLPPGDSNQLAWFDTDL

Target: TCF1 (human (endogenous in HEK 293T)) (UniProt P36402)
Assay: co-IP

In the case of “CTNNB1/β-catenin (from UniProt P35222 1-781)”, the binding is reported as “binds”.
